# Out of some 300,000 compounds screened, about 5,400 (1.8%) were called active. Inconclusive results, whose numbers are uncertain, are shown with a selection of clear calls. The call rests on the fitted dose curve; tested in HEK293 cells. Where the call is inconclusive, the potency comes from a doubtful curve fit.
# Assay: qHTS for inhibitors of binding or entry into cells for Marburg Virus
# Details: Marburg virus pseudotyped entry inhibition, cell reporter; activity change, negative = inhibition: at 37.8 µM (top of the series) unless noted
# On the % scale 0 is the no-effect control and ±100 the full control effect; potency means the concentration at half of the fitted maximal effect.
SMILES,"activity change, negative = inhibition",Potency
CCCCCCSC1=C(C#N)C(c2ccccc2)CC(=O)N1 (configuration not stated),inactive: -12.9%,
CCOCCc1nnc(NC(=O)C(=O)c2cc(C)n(-c3ccc(C)cc3C)c2C)s1,,"inconclusive: 10 µM [inhibitor, partial curve, poor fit]"
O=C(NCCCN1CCC(Cc2ccccc2)CC1)C1CC(=O)N(C2CCCCCC2)C1 (configuration not stated),,active: 14.1 µM
COC(=O)C1=C(C)N(CC2CCCO2)C(=O)/C1=C\c1ccc(O)cc1 (configuration not stated),inactive: 5.74% [at 46.1 µM],
COc1cccc(NC(=O)CN(C)C(=O)c2cccc(S(=O)(=O)Nc3ccccc3OC)c2)c1,inactive: -13.9%,
Cc1nn(CC(=O)Nc2ccncc2)c(C)c1[N+](=O)[O-],,"inconclusive: 2.51 µM [inhibitor, partial curve, poor fit]"
CCc1nnc(NC(=O)CSc2sc3c(O)cc(=O)[nH]c3c2C#N)s1,inactive: 9.86% [at 46.1 µM],
Cc1cc(C)c(C)c(S(=O)(=O)NCc2ccncc2)c1C,,"inconclusive: 3.55 µM [inhibitor, full curve, poor fit]"
O=C(NCCC1=CCCCC1)NC1CCCCC1,inactive: -4.28%,
CCOc1ccccc1NC(=O)CSc1nc2ccccc2c(=O)n1CC1CCCO1 (configuration not stated),,"inconclusive: 6.31 µM [activator, single point]"
Fc1ccc(CSc2nnc(CN3CCOCC3)n2-c2ccccc2)c(Cl)c1,,"inconclusive: 39.8 µM [inhibitor, partial curve, poor fit]"
CCN1CCN(CCNC(=O)CCc2c(C)c3c(C)nn(-c4ccccc4)c3n(C)c2=O)CC1,,"inconclusive: 35.5 µM [inhibitor, single point]"
CC(C)NC(=O)C(c1ccc(F)cc1)N(C(=O)CCC(=O)Nc1ccccn1)C1CCCC1 (configuration not stated),inactive: 3.65% [at 46.1 µM],
Cc1cc(=O)n2nc(N(C)CC(=O)NCc3ccccc3C)sc2n1,inactive: 21.6% [at 46.1 µM],
CC(C)CNC1=C(C(=S)Nc2ccccc2)C(=O)CC(C)(C)C1,,"inconclusive: 28.2 µM [inhibitor, partial curve, poor fit]"
O=C(COc1ccccc1Cl)NCc1ccncc1,inactive: 16.3%,
COCc1cc(=O)[nH]c(/N=C(\N)Nc2ccc(C)cc2C)n1,inactive: 2.33% [at 46.1 µM],
COc1cc(C(Nc2ccc(S(=O)(=O)N3CCC(C)CC3)cc2)C(=O)NCC2CCCO2)cc(OC)c1OC (configuration not stated),,inactive
CCOc1ccccc1NC(=S)N1CCC(c2nc3ccccc3o2)CC1,inactive: 5.38%,
COc1ccc(CCCc2nnc(SCC(=O)Nc3cccc(F)c3C)o2)cc1,inactive: 13.5% [at 46.1 µM],
O=C(CCNC(=O)c1ccccc1Cl)NN=Cc1ccco1,,"inconclusive: 10 µM [inhibitor, partial curve, poor fit]"
Cc1ccccc1-c1noc(CSc2nc3ccccc3[nH]2)n1,inactive: -28.4% [at 46.1 µM],
COc1ccccc1N1CCN(C2CCCN(C(=O)CCc3ccccn3)C2)CC1 (configuration not stated),,"inconclusive: 5.01 µM [activator, partial curve, poor fit]"
CS(=O)(=O)N1CCC(C(=O)Nc2ccc(Br)cc2F)CC1,,"inconclusive: 29.1 µM [activator, single point]"

# Some of the entries so far, as tab-separated lines:
SMILES	activity change, negative = inhibition	Potency
COCc1cc(=O)[nH]c(/N=C(\N)Nc2ccc(C)cc2C)n1	inactive: 2.33% [at 46.1 µM]	
COc1cc(C(Nc2ccc(S(=O)(=O)N3CCC(C)CC3)cc2)C(=O)NCC2CCCO2)cc(OC)c1OC (configuration not stated)		inactive

# Some of the entries above in a different format:
SMILES | activity change, negative = inhibition | Potency
COc1ccccc1N1CCN(C2CCCN(C(=O)CCc3ccccn3)C2)CC1 (configuration not stated) |  | inconclusive: 5.01 µM [activator, partial curve, poor fit]
CS(=O)(=O)N1CCC(C(=O)Nc2ccc(Br)cc2F)CC1 |  | inconclusive: 29.1 µM [activator, single point]

# Further records

SMILES,"activity change, negative = inhibition",Potency
COc1ccc(OC)c(N2C(=O)c3cccnc3C2=O)c1,inactive: 7.02% [at 46.1 µM],
Cc1ccccc1-n1c(SCc2c(C)noc2C)nnc1-c1c[nH]c2ccccc12,,"inconclusive: 35.5 µM [inhibitor, single point]"
Cc1cc(C)nc(-n2nc(C)c3c2N(Cc2ccccc2F)C(=O)CC3c2ccc(Cl)cc2)n1 (configuration not stated),,"inconclusive: 15.8 µM [inhibitor, single point]"
CCc1cc(=O)oc2cc(C)c(CN3CCCC(C)C3)c(O)c12 (configuration not stated),inactive: 14.3%,
CCOC(=O)c1cccc(NS(=O)(=O)c2c(C)[nH]c(=O)[nH]c2=O)c1,,"inconclusive: 18.3 µM [activator, single point]"
O=C(O)c1ccc(N/N=C/c2ccc3c(c2)OCO3)cc1,,"inconclusive: 0.562 µM [inhibitor, full curve, poor fit]"
Cc1c(/C(O)=C2\C(=O)C(=O)N(CCN(C)C)C2c2ccccc2)cnn1-c1ccccc1 (configuration not stated),inactive: 5.55% [at 46.1 µM],
C=CCn1cc(C(=O)NCC2CCCO2)c(=O)c2cc(S(=O)(=O)N3CCCCCC3)ccc21 (configuration not stated),,"inconclusive: 23.1 µM [inhibitor, partial curve, poor fit]"
O=S(=O)(c1ccc(Cl)cc1)c1nc(-c2cccs2)oc1N1CCCCC1,,"inconclusive: 35.5 µM [inhibitor, single point]"
CCc1cc2c(cc3c(=O)n(CC(=O)NC(C)c4ccccc4)ncn32)s1 (configuration not stated),inactive: 2.25% [at 46.1 µM],
CCc1ccccc1NC(=O)CC(=O)Nc1ccccc1CC,,"inconclusive: 0.224 µM [inhibitor, full curve, poor fit]"
O=C(c1ccccc1)c1ccccc1N/C=C/c1nnnn1-c1ccccc1,,"inconclusive: 1.12 µM [inhibitor, full curve, poor fit]"
c1ccc(N2CCN(c3ncnc4scc(-c5cccs5)c34)CC2)cc1,inactive: -15.2%,
CCN(CC(=O)NCc1ccc(F)cc1)CC(=O)Nc1ccc(Br)cc1F,,"inconclusive: 8.91 µM [inhibitor, partial curve, poor fit]"
Cc1cccc(C(=O)Oc2ccccc2/C=N/Nc2ccc([N+](=O)[O-])cc2)c1,inactive: -18.7%,
O=C(Nc1ccc(N2CCCC2)c(Cl)c1)c1ccc(Br)o1,,"inconclusive: 4.11 µM [activator, partial curve]"
COc1cccc(CSc2nc3ccncc3n2CC(=O)Nc2ccc(OC)c(OC)c2OC)c1,inactive: 18% [at 46.1 µM],
CCOC(=O)c1cnc2c(ccc3ccccc32)c1Nc1ccc(C(C)=O)cc1,inconclusive: 59.5% [activator] [at 46.1 µM],
Cc1cc(C)c(N=C2SCC(=O)N2Cc2ccco2)c(C)c1,,"inconclusive: 15.8 µM [inhibitor, partial curve, poor fit]"
CC(=O)c1ccc(C#CC(C)(C)O)s1,inactive: 1.11% [at 46.1 µM],
CCOC(=O)c1c(NC(=O)CN2C(=O)NC3(CCCCC3)C2=O)sc(C)c1-c1ccc(C)cc1,,"inconclusive: 7.08 µM [inhibitor, full curve, poor fit]"
Cc1cc(S(=O)(=O)NC(C)C)ccc1OCC(=O)N1CCOCC1,inactive: 0.225%,
Cc1ccc(-n2nc3c4c(cccc4c2=O)-c2ccccc2-3)cc1,,"inconclusive: 18.3 µM [inhibitor, single point]"

# — PubChem BioAssay AID540276 (National Center for Advancing Translational Sciences (NCATS), 2011)
